From the supplement of paper PMC4604168 (melanoma cell lines)
This is one part of the list. Repeats are few or missing, and single values can be far off.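 The apoptosis fraction was the count of cleaved-PARP antibody-stained nuclei relative to all DNA-stained nuclei, imaged in 1,536-well plates. Screening doses were set so most cells survived, and baseline and induced cleaved-PARP levels vary greatly across cell lines.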

Tests used:
Assay in all cases: cleaved PARP positive nuclei fraction relative to DMSO control; melanoma cells; higher = more apoptosis
Details in all cases: library dose: low library concentration; 72 h
[1] = test system: MZ2-MEL
[2] = test system: MeWo
[3] = test system: RPMI7951
[4] = test system: RVH-421
[5] = test system: SkMel28
[6] = test system: SkMel2
[7] = test system: SkMel30
[8] = test system: UACC62
[9] = test system: WM115
[10] = test system: WM1716
[11] = test system: WM1745
[12] = test system: WM3526
[13] = test system: WM3619
[14] = test system: WM451Lu
[15] = test system: SkMel5
[16] = test system: UACC257

| Structure (SMILES) | cleaved PARP positive nuclei fraction [1] [%] | cleaved PARP positive nuclei fraction [2] [%] | cleaved PARP positive nuclei fraction [3] [%] | cleaved PARP positive nuclei fraction [4] [%] | cleaved PARP positive nuclei fraction [5] [%] | cleaved PARP positive nuclei fraction [6] [%] | cleaved PARP positive nuclei fraction [7] [%] | cleaved PARP positive nuclei fraction [8] [%] | cleaved PARP positive nuclei fraction [9] [%] | cleaved PARP positive nuclei fraction [10] [%] | cleaved PARP positive nuclei fraction [11] [%] | cleaved PARP positive nuclei fraction [12] [%] | cleaved PARP positive nuclei fraction [13] [%] | cleaved PARP positive nuclei fraction [14] [%] | cleaved PARP positive nuclei fraction [15] [%] | cleaved PARP positive nuclei fraction [16] [%] |
| --- | --- | --- | --- | --- | --- | --- | --- | --- | --- | --- | --- | --- | --- | --- | --- | --- |
| C[C@@H](Oc1cc(-c2cnn(C3CCNCC3)c2)cnc1N)c1c(Cl)ccc(F)c1Cl [Crizotinib] + C[C@]1(c2nc3c(C(N)=O)cccc3[nH]2)CCCN1 [Veliparib] (first compound 0.2 µM, partner dose 1.4 µM) | 64.8 | 61.2 | 166 | 184 | 89.5 | 118 | 23.5 | 52.5 | 41 | 100 | 108 | 90.9 | 84.4 | 39.7 |  |  |
| Nc1ccn([C@@H]2O[C@H](CO)[C@@H](O)C2(F)F)c(=O)n1 [gemcitabine] + Cc1nc(Nc2ncc(C(=O)Nc3c(C)cccc3Cl)s2)cc(N2CCN(CCO)CC2)n1 [dasatanib] (first compound 0.0004 µM, partner dose 0.004 µM) | 96.6 | 87.7 | 43 | 119 | 38.9 | 175 | 42.8 | 73.4 | 149 | 83.7 | 191 | 16.2 | 134 | 150 |  |  |
| CN1CCN(c2ccc3nc(-c4c(N)c5c(F)cccc5[nH]c4=O)[nH]c3c2)CC1 [Dovitinib] + Cc1nc(Nc2ncc(C(=O)Nc3c(C)cccc3Cl)s2)cc(N2CCN(CCO)CC2)n1 [dasatanib] (first compound 0.1 µM, partner dose 0.004 µM) | 257 | 87.1 | 587 | 43.6 | 111 | 272 | 224 | 119 | 199 | 455 | 135 | 196 | 78.9 | 129 |  |  |
| Nc1ccn([C@@H]2O[C@H](CO)[C@@H](O)C2(F)F)c(=O)n1 [gemcitabine] + COCC[n+]1c2c(n(Cc3cnccn3)c1C)C(=O)c1ccccc1C2=O [YM155] (first compound 0.0004 µM, partner dose 0.0004 µM) | 211 | 57.2 | 21.6 | 51.5 | 23.8 | 152 | 69.2 | 46.9 | 93.1 | 93.1 | 109 | 25.5 | 186 | 68.3 |  |  |
| C[C@@H](Oc1cc(-c2cnn(C3CCNCC3)c2)cnc1N)c1c(Cl)ccc(F)c1Cl [Crizotinib] + C=C(c1ccc(C(=O)O)cc1)c1cc2c(cc1C)C(C)(C)CCC2(C)C [Bexarotene] (first compound 0.2 µM, partner dose 2 µM) | 182 | 119 | 45.1 | 62 | 97 | 110 | 82.5 | 432 | 139 | 172 | 97.1 | 98.9 | 70 | 209 |  |  |
| CNC(=O)c1cc(Oc2ccc(NC(=O)Nc3ccc(Cl)c(C(F)(F)F)c3)cc2)ccn1 [sorafenib] + COc1ccc(Cl)c(Nc2nc3ccccc3nc2NS(=O)(=O)c2cccc(NC(=O)C(C)(C)N)c2)c1 [XL147] (first compound 0.4 µM, partner dose 0.8 µM) | 57.8 | 89.1 | 128 | 273 | 73.7 | 115 | 88.5 | 76.9 | 85.3 | 64.2 | 228 | 83.7 | 119 | 45.7 |  |  |
| Cc1cc(Nc2cc(N3CCN(C)CC3)nc(/C=C/c3ccccc3)n2)n[nH]1 + COCC[n+]1c2c(n(Cc3cnccn3)c1C)C(=O)c1ccccc1C2=O [YM155] (first compound 0.04 µM, partner dose 0.0004 µM) | 268 | 206 | 30.9 | 116 | 140 | 72.1 | 76.6 | 179 | 127 | 77 | 107 | 82.9 | 85.6 | 27.3 |  |  |
| CCCS(=O)(=O)Nc1ccc(F)c(C(=O)c2c[nH]c3ncc(Cl)cc23)c1F + Nc1ncn([C@H]2C[C@H](O)[C@@H](CO)O2)c(=O)n1 [decitabine] (first compound 0.08 µM, partner dose 0.1 µM) | 145 | 96.3 | 24 | 225 | 94.4 | 97.2 | 57.3 | 153 | 139 | 163 | 98.8 | 128 | 124 | 130 |  |  |
| Cn1c(=O)n(-c2ccc(C(C)(C)C#N)cc2)c2c3cc(-c4cnc5ccccc5c4)ccc3ncc21 + Cn1c(Nc2ccc(C(F)(F)F)cc2)nc2cc(Oc3ccnc(-c4ncc(C(F)(F)F)[nH]4)c3)ccc21 [CHIR265] (first compound 0.004 µM, partner dose 0.08 µM) | 205 | 219 | 207 | 237 | 177 | 178 | 176 | 363 | 577 | 101 | 135 | 129 | 205 | 62.4 |  |  |
| O=C(O)[C@@H]1[O][Sb](=[O])([O][Sb]2(=[O])[O][C@H]([C@H](O)CO)[C@H](O)[C@H](C(=O)O)[O]2)[O][C@H]([C@H](O)CO)[C@@H]1O (stereo partly specified) [stibogluconate] + C#Cc1cccc(Nc2ncnc3cc(OCCOC)c(OCCOC)cc23)c1 [erlotinib] (first compound 2 µM, partner dose 0.8 µM) | 54.9 | 27.5 | 50 | 94.5 | 65.7 | 162 | 72 | 176 | 71.5 | 42.9 | 101 | 77.9 | 101 | 279 |  |  |
| CS(=O)(=O)CCNCc1ccc(-c2ccc3ncnc(Nc4ccc(OCc5cccc(F)c5)c(Cl)c4)c3c2)o1 [lapatinib] + O=C(O)c1ccc2c(c1)nc(Nc1cccc(Cl)c1)c1ccncc12 [CX4945] (first compound 0.8 µM, partner dose 0.4 µM) | 109 | 147 | 152 | 93.9 | 73.4 | 74.6 | 160 | 49.6 | 133 | 137 | 84 | 23.2 | 83.4 | 129 |  |  |
| Nc1ncn([C@H]2C[C@H](O)[C@@H](CO)O2)c(=O)n1 [decitabine] + COc1ccc(Cl)c(Nc2nc3ccccc3nc2NS(=O)(=O)c2cccc(NC(=O)C(C)(C)N)c2)c1 [XL147] (first compound 0.1 µM, partner dose 0.8 µM) | 80.8 | 119 | 177 | 133 | 137 | 57.1 | 71.9 | 118 | 168 | 193 | 113 | 97.4 | 65.8 | 28.8 |  |  |
| CO[C@H]1C[C@@H]2CC[C@@H](C)[C@@](O)(O2)C(=O)C(=O)N2CCCC[C@H]2C(=O)O[C@H]([C@H](C)C[C@@H]2CC[C@@H](OCCO)[C@H](OC)C2)CC(=O)[C@H](C)/C=C(\C)[C@@H](O)[C@@H](OC)C(=O)[C@H](C)C[C@H](C)/C=C/C=C/C=C/1C [everolimus] + COc1cc2ncnc(Nc3ccc(Oc4ccccc4)cc3)c2cc1OC [SrcI1] (first compound 0.02 µM, partner dose 2 µM) | 155 | 110 | 134 | 29.8 | 362 |  | 27.3 | 240 | 155 | 130 | 108 | 93.1 | 132 | 51.8 | 123 | 329 |
| CO[C@H]1C[C@@H]2CC[C@@H](C)[C@@](O)(O2)C(=O)C(=O)N2CCCC[C@H]2C(=O)O[C@H]([C@H](C)C[C@@H]2CC[C@@H](OCCO)[C@H](OC)C2)CC(=O)[C@H](C)/C=C(\C)[C@@H](O)[C@@H](OC)C(=O)[C@H](C)C[C@H](C)/C=C/C=C/C=C/1C [everolimus] + Oc1nc(-c2ccc(C(F)(F)F)cc2)nc2c1CSCC2 [XAV939] (first compound 0.02 µM, partner dose 2 µM) | 123 | 241 | 116 | 127 | 549 |  | 28.9 | 304 | 205 | 615 | 94.9 | 110 | 149 | 63.3 | 101 | 431 |
| Cc1cc(Nc2cc(N3CCN(C)CC3)nc(/C=C/c3ccccc3)n2)n[nH]1 + Cc1nc(Nc2ncc(C(=O)Nc3c(C)cccc3Cl)s2)cc(N2CCN(CCO)CC2)n1 [dasatanib] (first compound 0.04 µM, partner dose 0.004 µM) | 149 | 112 | 63.8 | 83.2 | 49.9 | 49.2 | 78.1 | 100 | 126 | 60.3 | 92.9 | 30.9 | 98.4 | 29.5 |  |  |
| CO[C@H]1C[C@@H]2CC[C@@H](C)[C@@](O)(O2)C(=O)C(=O)N2CCCC[C@H]2C(=O)O[C@H]([C@H](C)C[C@@H]2CC[C@@H](OCCO)[C@H](OC)C2)CC(=O)[C@H](C)/C=C(\C)[C@@H](O)[C@@H](OC)C(=O)[C@H](C)C[C@H](C)/C=C/C=C/C=C/1C [everolimus] + O=S(=O)(c1ccccc1)N(CC(F)(F)F)c1ccc(C(O)(C(F)(F)F)C(F)(F)F)cc1 [T0901317] (first compound 0.02 µM, partner dose 1.4 µM) | 133 | 68.7 | 104 | 130 | 216 |  | 184 | 195 | 98.4 | 73.1 | 102 | 114 | 152 | 356 | 86.5 | 144 |
| CO[C@H]1C[C@@H]2CC[C@@H](C)[C@@](O)(O2)C(=O)C(=O)N2CCCC[C@H]2C(=O)O[C@H]([C@H](C)C[C@@H]2CC[C@@H](OCCO)[C@H](OC)C2)CC(=O)[C@H](C)/C=C(\C)[C@@H](O)[C@@H](OC)C(=O)[C@H](C)C[C@H](C)/C=C/C=C/C=C/1C [everolimus] + Oc1cc(-c2nc(-c3ccccc3)[nH]c2-c2ccncc2)ccc1Cl [L779450] (first compound 0.02 µM, partner dose 0.2 µM) | 195 | 60.9 | 177 | 118 | 720 |  | 52 | 270 | 72 | 383 | 117 | 116 | 168 | 98.7 | 156 | 687 |
| CC(C)C[C@H](NC(=O)[C@H](Cc1ccccc1)NC(=O)c1cnccn1)B(O)O [Bortezomib] + Nc1cccc2c1CN(C1CCC(=O)NC1=O)C2=O [lenalidomide] (first compound 0.001 µM, partner dose 1 µM) | 54.3 | 151 | 114 | 42.5 | 78.6 | 105 | 201 | 201 | 146 | 357 | 175 | 37.2 | 686 | 40.1 |  |  |

Single entries from the list.
cleaved PARP positive nuclei fraction [8] [%], Cc1cc(Nc2cc(N3CCN(C)CC3)nc(/C=C/c3ccccc3)n2)n[nH]1 + COCC[n+]1c2c(n(Cc3cnccn3)c1C)C(=O)c1ccccc1C2=O [YM155] (first compound 0.04 µM, partner dose 0.0004 µM) is entered as 179
cleaved PARP positive nuclei fraction [10] [%], CC(C)C[C@H](NC(=O)[C@H](Cc1ccccc1)NC(=O)c1cnccn1)B(O)O [Bortezomib] + Nc1cccc2c1CN(C1CCC(=O)NC1=O)C2=O [lenalidomide] (first compound 0.001 µM, partner dose 1 µM) is entered as 357
